The text below walks through data of paper PMC4881018, “Sec15 links bud site selection to polarised cell growth and exocytosis in Candida albicans” (Scientific Reports, 2016).

No constants are given. Whether binding was seen depends on the method and setting. For part of these data: In cells and extracts the contact can be indirect. For part of these data: Binding can be weak; no strength is given.

One test concerns the target Sec15-GFP (C. albicans). Briefly: co-IP; C. albicans cell lysates in HEPES lysis buffer (50 mM Hepes pH 7.5, 1 mM EDTA, 5% glycerol, 0.05% Tween 20, 105 mM KCl); antibody-conjugated beads (anti-GFP, anti-Myc or anti-HA), 4 °C for 2 h; western blot.
The target of another test is Bem1-HA (C. albicans). The description is as above.
For test [1], the target named is GST-Sec15^550–892 (C. albicans). Briefly: pull-down; GST fusion protein immobilised on glutathione-Sepharose beads (20 μl), incubated with 20 μg of purified His-tagged protein in 200 μl binding buffer (1× PBS, 1 mg/ml ovalbumin, 10 mM β-mercaptoethanol, 0.1% IGPAL-30), 1 hour at room temperature; four washes; anti-His blot; both purified.

In the case of Bem1-HA (from UniProt A0A1D8PLB6 1-632), in the test with Sec15-GFP (C. albicans), the binding result is given as “binds”.
“Sec15-GFP (from UniProt A0A1D8PM29 1-892)”: in the test with Bem1-HA (C. albicans), the binding entry is listed as “binds”.
As to “His-Bem1^301–632 (from UniProt A0A1D8PLB6 301-632) (domain or fragment)”, the binding entry in test [1] is given as “no binding (tested: 20 μg)”.
